# Several values for one entry are separate records, joined by “and”; a condition that tells them apart may be missing. Identical values can stand only once. Counter-ions that a name gives are not always drawn. ± gives the standard deviation of the averaged measurements. Some of the results follow. Many values rest on one well or one pass, so single values are uncertain.
# Test system: RAW 264.7
# Experiment: HMGB1-induced TNF-alpha production relative to HMGB1-stimulated control; higher = more TNF-alpha secretion (less inhibition)
# Settings: stimulus: HMGB1 5 ug/ml, 18 h
# [1] = compound concentration: 1 ug/ml
Structure (SMILES),HMGB1-induced TNF-alpha production (compound concentration: 3 uM),HMGB1-induced TNF-alpha production [1]
C[C@]12CC[C@H]3[C@@H](CCC4=CC(=O)CC[C@@]43C)[C@@H]1CC[C@@H]2O,100%,–
C[C@]12CC[C@H]3[C@@H](CCC4=CC(=O)CC[C@@]43C)[C@@H]1CC[C@@H]2O [Testosterone],96.8%,–
N=C(NCCC[C@H](N)C(=O)O)N[N+](=O)[O-] [NG-Nitro-L-arginine],116%,–
Cc1ccc(/N=C/N(C)/C=N/c2ccc(C)cc2C)c(C)c1,95%,–
CCCN(CCC)C1Cc2cc(OC)c(OC)cc2C1,103%,–
O=c1c2ccccc2[se]n1-c1ccccc1,82.2 ± 3.2%,–
O=c1c2ccccc2[se]n1-c1ccccc1 [Ebselen],66.4 ± 1.3%,–
O=C1c2ccccc2-c2cccc3cccc1c23,84.7%,–
COC(=O)N1CCN(C(=O)Cc2ccc(Cl)c(Cl)c2)C(CN2CCCC2)C1 (centres undefined),103% and 86.3%,–
NCC(O)c1ccc(O)cc1 (centres undefined),98.5%,–
CC(C)NC(C)Cc1ccc(I)cc1 (centres undefined) [Iofetamine hydrochloride],118%,–
Nc1ncnc2c1ncn2[C@@H]1O[C@H](CI)[C@@H](O)[C@H]1O [5'-Iodo-5'-deoxyadenosine],–,67.3%
COc1cc2c(cc1O)C[C@H]1c3c(cc(OC)c(O)c3-2)CCN1C [Isoboldine],–,75.7%
O=c1ccc2cc(O[C@@H]3O[C@H](CO)[C@@H](O)[C@H](O)[C@H]3O)c(O)cc2o1 [Esculin],–,50.7%
CN1CCc2cccc(Cl)c2CC1,117%,–
COC(=O)[C@@H](N)CCCNC(=N)N[N+](=O)[O-] [NG-Nitro-L-arginine methyl ester hydrochloride],121%,–
CN1Cc2c(ccc3c2OCO3)[C@@H]2[C@H]1c1cc3c(cc1C[C@@H]2O)OCO3 [(+)-Chelidonine monohydrate],–,76.3%
CCCC[N+]1(C)[C@H]2CC(OC(=O)C(CO)c3ccccc3)C[C@H]1[C@H]1O[C@H]12 (some centres undefined) [Scopolamine N-butyl],95.7%,–
CN[C@@H](C)[C@H](O)c1ccccc1 [Ephedrine],–,81.5%
CC[C@]1(O)CC[C@H]2[C@@H]3CCC4=CCCC[C@@H]4[C@H]3CC[C@@]21C [Ethylestrenol],103%,–

Structure (SMILES),HMGB1-induced TNF-alpha production (compound concentration: 3 uM),HMGB1-induced TNF-alpha production [1]
CC(=O)O[C@H]1C[C@@H]2CC[C@@H]3[C@H](CC[C@@]4(C)[C@H]3C[C@H]([N+]3(C)CCCCC3)[C@@H]4OC(C)=O)[C@@]2(C)C[C@@H]1[N+]1(C)CCCCC1 [Pancuronium bromide],110 ± 6.2%,–
CC(=O)O[C@H]1C[C@@H]2CC[C@@H]3[C@H](CC[C@@]4(C)[C@H]3C[C@H]([N+]3(C)CCCCC3)[C@@H]4OC(C)=O)[C@@]2(C)C[C@@H]1[N+]1(C)CCCCC1,85.6%,–
CC(=O)O[C@H]1C[C@@H]2CC[C@@H]3[C@H](CC[C@@]4(C)[C@H]3C[C@H]([N+]3(C)CCCCC3)[C@@H]4OC(C)=O)[C@@]2(C)C[C@@H]1[N+]1(C)CCCCC1 [Pancuronium],108 ± 3.3%,–
c1ccc(Cn2ccnc2)cc1,114%,–
C[C@]12C[C@H]3S[C@H]3C[C@@H]1CC[C@@H]1[C@@H]2CC[C@]2(C)[C@@H](O)CC[C@@H]12 [Epitiostanol],98.5%,–
NC(CCCCCP(=O)(O)O)C(=O)O (racemic) [(±)-2-Amino-7-phosphonoheptanoic acid],73.3%,–
COP(=O)(OC)C(O)C(Cl)(Cl)Cl (centres undefined) [Trichlorfon],90.9%,–
COP(=O)(OC)C(O)C(Cl)(Cl)Cl (centres undefined),94.4%,–
CCCC(C)C1(CC)C(=O)NC(=O)NC1=O (centres undefined) [Pentobarbital],117%,–
O=c1cccc2n1CC1CC2CN(CCCN=C=S)C1 (centres undefined),–,69.3%
C[C@@H]1O[C@H](C[N+](C)(C)C)C[C@H]1O (racemic) [(±)-Muscarine chloride],112%,–
CP(=O)(O)C1=CCNCC1,105%,–
O=c1cccc2n1CC1CC2CN(c2nc(N3CCCC3)nc(N3CCCC3)n2)C1 (centres undefined),–,65.3%
NC(=O)c1cc(N2CC2)c([N+](=O)[O-])cc1[N+](=O)[O-],81.3%,–
C=CCN1CC[C@]23c4c5ccc(O)c4O[C@H]2C(=O)CC[C@@]3(O)[C@H]1C5,92.1%,–
C=CCN1CC[C@]23c4c5ccc(O)c4O[C@H]2C(=O)CC[C@@]3(O)[C@H]1C5 [Naloxone],84.7%,–
C=CCN1CC[C@]23c4c5ccc(O)c4O[C@H]2C(=O)CC[C@@]3(O)[C@H]1C5 [Naloxone hydrochloride],101 ± 33%,–
C(#CCN1CCCC1)CN1CCCC1 [Tremorine dihydrochloride],65.7%,–
CC[C@@H](C(=O)[C@@H](C)[C@@H](O)[C@H](C)[C@@H]1O[C@@H]([C@@H](CC)C(=O)O)CC[C@@H]1C)[C@H]1O[C@]2(C=C[C@@H](O)[C@]3(CC[C@@](C)([C@H]4CC[C@](O)(CC)[C@H](C)O4)O3)O2)[C@H](C)C[C@@H]1C,132%,–

# Reference: the supplement of paper PMC3682954
